Measurements taken from PubChem BioAssay AID1508600 (Functional Genomics Laboratory (NCATS/FGL), 2020).
Among all 53,000 sequences or so, about 3,700 (7%) were called active.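 The calls were made as follows: active = gene knockdowns whose robust z-score for IL-1 alpha signal is at least 2 or at most -2, so actives lie on both sides; inactive = the rest.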 The list shows a part of the results.

Assay: Components of the Cytosolic LPS Sensing Pathway: Gene Identification via Genome-wide siRNA Screen;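 also: robust z of the log signal after scaling to non-targeting control siRNA wells of the plate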
Conditions: RAW264.7 macrophages, IL-1a HTRF, actives lie on both sides, screened at 100 nM (by protocol), cells primed 5 h with Pam3CSK4 first
Summary of the method: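 Using IL-1a HTRF as read-out, the screen measured release from RAW264.7 cells after 48h siRNA knockdown (100 nM), 5 h Pam3CSK4 priming and 24 h cytosolic LipidA. Values were expressed relative to negative-control wells as robust z-scores.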

Row | Sequence | z-score
1 | GGAUUGUCCUUGAUGGCUGTT against Plek2 | inactive: -0.116
2 | GGAUACUAGCAGUUGUUCGTT against Arhgap39 | inactive: 0.217
3 | GCAAGAUUCUUGAAAAGGATT against Maneal | inactive: 1.06
4 | CCAUCAUCGCUCUGUCACATT against Olfr1391 | inactive: -0.448
5 | GCGACAAUUAAGUAUACUUTT against Gria2 | inactive: 1.23
6 | GGCAACGAGAGUCCAUUUCTT against Slc28a1 | inactive: 0.886
7 | GGUACAAGUUAAGGUCUACTT against Vmn1r236 | inactive: 0.572
8 | GCAUCGACAUCCACUUGAATT against Kif9 | inactive: -0.596
9 | GGAGUGUUUGGUUUCUAUATT against Slc25a46 | inactive: 1.69
10 | GCUUAGUGGUUCUUAUUUGTT against Olfr893 | inactive: -0.214
11 | GGUGAACUUGAGGUCACACTT against Angpt4 | inactive: 0.134
12 | GGACUACCAGUUUUACAUCTT against Ssr1 | inactive: 1.25
13 | GCACUCCUGAAAAUCACCUTT against Lax1 | inactive: 0.776
14 | CGAGAUCGAGUACUCAACUTT against Vps39 | active: -2.96
15 | GGAGAUCGACAAAUGCCUGTT against Gna13 | inactive: -1.64
16 | GGAAUCAAGGACUUUAGUATT against Slc17a2 | inactive: 1.29
17 | CCUUCCUACCGGAGAAUGATT against Capn6 | inactive: -0.341
18 | GCUAACCAACUUAAUUCUATT against Angptl3 | inactive: 0.675
19 | CCUAACGGUCAGAAGUUGATT against Ccng1 | inactive: 0.39
20 | CCGUUGUGAACUACAAGCUTT against Ufsp1 | inactive: 0.575
21 | GCCCAAGGUGAUCAUUAUUTT against Casp1 | inactive: -0.15
22 | GGUCUUCAGGGAGUUCUUCTT against Dnajb3 | inactive: 1.27

Row | Sequence | z-score
23 | CCCUGUAUAUAUUUGCUGATT against Clca3a2 | active: 2.78
24 | GGAAGUAGGAUGAUGUUGGTT against Hmga1 | active: -2.08
25 | GCCAUCACAAUUCUAAUCCTT against Vmn2r123 | inactive: -1.54
26 | GGAAAAGGAACUUUAUCUATT against Pds5b | inactive: -0.506
27 | GCAAGUAUCCCGAAUUGACTT against Snhg11 | inactive: -0.39
28 | GGGAUAGAAAUGAUUGAGGTT against Lhx8 | inactive: 0.512
29 | GCCUAUCAGUAUCAUAGUUTT against Dnajc10 | inactive: 0.905
30 | GGCCAAGGUACAAUCCACCTT against Ajm1 | inactive: 0.481
31 | GGGAACAUGUGGAAGUAUGTT against Ndufaf7 | inactive: 0.187
32 | GCGUGGAGUGGGAUAAAGATT against Cant1 | inactive: -1.1
33 | CCUAGAGUCUCAGGACUGUTT against Actrt3 | inactive: 0.682
34 | GGAGGAUAUCACAACAGAATT against Ftsj3 | inactive: -0.971
35 | GGGAUUUCUAUAACCCGUUTT against Cldn3 | inactive: -1.01
36 | GGCCAAGAGUGUUUCCAAATT against Samt4 | inactive: 1.53
37 | GGGUCCUAAGACUAUUGAUTT against Eif4g1 | inactive: 0.274
38 | GGUGUGAUGGAGUUCUUAUTT against Ndufs1 | inactive: -0.94
39 | CGCUCAUUUAGACAUAGAGTT against Ass1 | inactive: 0.686
40 | GGUAGAGGUUAAGACGAUCTT against Dock6 | inactive: -0.436
41 | GGUUUCAAGGAAAGACUAATT against Kcnj2 | inactive: -0.846
42 | GCGCAGAGUUUGACUAUCCTT against Itgb7 | inactive: 0.86
43 | GGUCACCCUGUUUAGGCCUTT against Fgd3 | inactive: 0.571
44 | GGUAACAUUUUUUUCCUGUTT against Pla2g3 | inactive: 0.868

Row | Sequence | z-score
45 | GGACUUCUACCUGUCCAUATT against Crtap | inactive: 1.24
46 | CGUGGCUCACAAUAAAUGCTT against Cfd | inactive: 0.385
47 | CCGCUGAAAAUGGAAGUUATT against Mrgprb4 | active: -2.21
48 | CGAGAUUUCUGAUGAUGAUTT against Osbpl3 | inactive: 0.0194
49 | GCACCAUAACGUAAGGCAUTT against Ghsr | inactive: -1.13
50 | CGAACAGUGCUUCGUAUGUTT against Lims1 | inactive: -1.04
51 | CCAUUUAAUCCAUAUUUCCTT against Gnao1 | active: -2.05
52 | CCCUGUCUCCCGCAUAGAATT against Itgb6 | inactive: 1.33
53 | GGUGAUACUACAUAUCAAGTT against Adamts8 | inactive: 0.668
54 | GCUACAGGAUUACAUGGUCTT against Ccm2l | inactive: 0.48
55 | GGCUUUUGUGGACUUUACATT against Capn12 | inactive: 1.42
56 | GCAAUAAAAACUACACUAGTT against Agpat3 | inactive: -0.432
57 | CCAUUACUUCUGUGACCUCTT against Olfr32 | inactive: -0.289
58 | GGAAAUUCUACAAGGGCAATT against Rpl35 | inactive: 1.04
59 | CCCAGAAGAGACUAUACUGTT against Myl10 | inactive: 0.202
60 | GGUGUAAGGCUGUUGUAUUTT against Ackr3 | inactive: -0.0492
61 | GCAUAGCAGAGAUGAUUCUTT against Trip12 | active: 2.15
62 | GGUGGAGAAACAAAUUAGUTT against Rab9 | inactive: 1.47
63 | GGGUAAUUCCCAGUGAAGATT against Lpin2 | inactive: -0.661
64 | CCCGUAAGGUAACAAACCGTT against Polr3k | inactive: -1.14
65 | CCUUUAAAAGCGUAGGCAUTT against Esrp1 | inactive: -0.695
66 | GGGUGUAACAAAAUAAAGUTT against Ptprg | inactive: 0.0684

3 records drawn at random from those above, as already listed:
Row | Sequence | z-score
59 | CCCAGAAGAGACUAUACUGTT against Myl10 | inactive: 0.202
54 | GCUACAGGAUUACAUGGUCTT against Ccm2l | inactive: 0.48
55 | GGCUUUUGUGGACUUUACATT against Capn12 | inactive: 1.42

A different layout for some results above.
Row,Sequence,z-score
1,GGAUUGUCCUUGAUGGCUGTT against Plek2,inactive: -0.116
44,GGUAACAUUUUUUUCCUGUTT against Pla2g3,inactive: 0.868
45,GGACUUCUACCUGUCCAUATT against Crtap,inactive: 1.24
49,GCACCAUAACGUAAGGCAUTT against Ghsr,inactive: -1.13
50,CGAACAGUGCUUCGUAUGUTT against Lims1,inactive: -1.04

Following part.

Row | Sequence | z-score
67 | GGUGUAUCGCCUAUACCAGTT against Chmp7 | inactive: -0.0399
68 | GGGCAUUUUGAGAAUAUGATT against Zfp85os | inactive: -1.31
69 | CCUUGAAUAACUGUAUGGUTT against Etfbkmt | inactive: 0.77
70 | GGACAUUGGCCAUUUGGUUTT against Fpr1 | inactive: -0.21
71 | CCUCUACAGGCAAAAUUAGTT against Aurkb | inactive: -1.09
72 | CCAGCUUACAUGAAUAGUUTT against Alx1 | inactive: -0.205
73 | CGAAAACCUUGCCACUGAGTT against Dbndd1 | inactive: 0.321
74 | GGCUUUCGUUUACAACAAGTT against Naglu | inactive: -0.414
75 | GGCAUAUGUUCGUCUUUCATT against Asf1b | inactive: -1.25
76 | CGGAUGAAUGGACUUCCAATT against Dcx | inactive: 1.16
77 | GCCCGCCUAUUUGAAAGCATT against Zfp740 | inactive: 0.839
78 | GGCCAUUUCGAACAUGGUATT against Acacb | inactive: 0.158
79 | GGAACACUGGGAACGUAUCTT against Ifnk | inactive: 0.00139
80 | GCUCAUUUCCAGAAGACACTT against Tas2r102 | inactive: -1.04
81 | GCUUAUCUGUCAGUACCACTT against Cxcr6 | inactive: 0.811
82 | GGAGGAUUUGCCAAGUAACTT against Zbtb33 | inactive: -0.0596
83 | GCCAUUGUUACUGACUGCCTT against Plekhg4 | inactive: -0.341
84 | GCGGAGUGUCAAUAAAAUATT against Atp6v1g2 | inactive: -0.494
85 | GCUGGAGAAUAAGCUAAUUTT against Kif13a | inactive: 1.96
86 | GGAGCUUCGUGGAUAAGAGTT against Padi3 | inactive: -1.79
87 | GGAAAAGCAGACAUGUGAUTT against Dedd | inactive: -0.875
88 | GGAAAUAUUGAUGCUGCUGTT against Ttc39a | inactive: 1.09

Row | Sequence | z-score
89 | GGCCUCUUAUGUCAACCUGTT against Rpsa | inactive: -1.57
90 | GGGAGAUGUAUGCUUGCUCTT against Evi2a | inactive: 0.934
91 | CGUGAUCCCACAGAUGUAGTT against Csrp3 | inactive: -0.649
92 | GGAGGAGCAAAAGUCAGAATT against Palm | inactive: 0.705
93 | CGACUCCAAGGAUUUGACUTT against Anxa10 | inactive: -1.23
94 | CGUUUGUUACUCUUCAGCUTT against Olfr1461 | inactive: -1.07
95 | GGCAACGGUACCUUUGUGGTT against Crtac1 | inactive: -1.06
96 | GGACCAGUACAACUUUAAUTT against Prf1 | inactive: -0.314
97 | GGCCCUUUGAGUUAGAGAATT against Apln | inactive: -1.7
98 | CCAUUCAAACAGCAUUCAUTT against Itpr1 | inactive: 1.48
99 | GCACUCUGCCUGAAAUACCTT against Nlrp1a | inactive: -0.376
100 | GGAACUGCCUUCGACCUGATT against Galm | inactive: -0.795
101 | GGAGAGCUUGUUCAAGUGCTT against Zxdc | inactive: -0.86
102 | CAUCGUGUGAAACUGGAGATT against Carmil3 | inactive: 0.608
103 | CCAUCAGUUUCAUUAUUGGTT against Fpr-rs6 | inactive: -0.605
104 | CCUUCCAGCUUUAUUAGAGTT against Fzd1 | inactive: 0.141
105 | GGGCAAAACACUGUCUUUCTT against Tlr5 | inactive: 1.87
106 | GCCAUACGACUAUAGUAUUTT against Zfp979 | inactive: 0.191
107 | GGCAACUGCCUUUACCAUATT against Tceanc2 | inactive: 1.67
